# No constants are given. Whether binding was seen depends on the method and setting. In cells and extracts the contact can be indirect. A yes stands for co-enrichment or nearness to the bait. Other partners may have been found.
# By UniProt entry, the sequences of proteins in these tests, tags left out. Where a name states a change or a piece, a line headed by the entry shows the natural chain unless it says otherwise.
# UniProt P04150: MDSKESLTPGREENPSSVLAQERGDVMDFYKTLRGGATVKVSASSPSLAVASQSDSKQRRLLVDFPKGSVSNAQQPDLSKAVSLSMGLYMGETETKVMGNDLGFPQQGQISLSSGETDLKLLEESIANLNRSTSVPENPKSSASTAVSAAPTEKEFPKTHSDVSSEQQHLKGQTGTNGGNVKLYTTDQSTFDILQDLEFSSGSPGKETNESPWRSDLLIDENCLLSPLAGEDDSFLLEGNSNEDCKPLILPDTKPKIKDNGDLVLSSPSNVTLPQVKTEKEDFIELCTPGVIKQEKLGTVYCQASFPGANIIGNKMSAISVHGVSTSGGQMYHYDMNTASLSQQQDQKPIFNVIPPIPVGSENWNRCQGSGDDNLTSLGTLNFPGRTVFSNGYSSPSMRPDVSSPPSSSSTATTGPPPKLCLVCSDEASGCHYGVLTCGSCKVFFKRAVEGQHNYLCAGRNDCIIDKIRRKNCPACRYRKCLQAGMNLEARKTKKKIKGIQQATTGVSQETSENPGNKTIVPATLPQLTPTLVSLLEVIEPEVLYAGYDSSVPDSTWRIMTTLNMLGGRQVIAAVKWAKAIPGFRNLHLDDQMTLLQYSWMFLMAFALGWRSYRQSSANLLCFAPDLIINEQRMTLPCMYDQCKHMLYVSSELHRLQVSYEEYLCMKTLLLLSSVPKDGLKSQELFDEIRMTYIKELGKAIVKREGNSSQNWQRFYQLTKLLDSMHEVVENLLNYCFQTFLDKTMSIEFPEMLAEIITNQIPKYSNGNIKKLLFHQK
# UniProt Q10107: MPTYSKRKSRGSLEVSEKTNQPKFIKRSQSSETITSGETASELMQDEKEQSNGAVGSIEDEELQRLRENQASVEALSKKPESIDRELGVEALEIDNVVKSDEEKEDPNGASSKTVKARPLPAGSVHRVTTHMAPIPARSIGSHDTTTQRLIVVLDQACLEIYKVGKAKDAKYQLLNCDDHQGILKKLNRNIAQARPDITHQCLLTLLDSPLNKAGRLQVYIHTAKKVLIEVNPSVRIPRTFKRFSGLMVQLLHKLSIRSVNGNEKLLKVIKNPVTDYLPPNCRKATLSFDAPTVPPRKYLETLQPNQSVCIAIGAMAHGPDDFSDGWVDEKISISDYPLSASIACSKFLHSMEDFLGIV
# UniProt O42945: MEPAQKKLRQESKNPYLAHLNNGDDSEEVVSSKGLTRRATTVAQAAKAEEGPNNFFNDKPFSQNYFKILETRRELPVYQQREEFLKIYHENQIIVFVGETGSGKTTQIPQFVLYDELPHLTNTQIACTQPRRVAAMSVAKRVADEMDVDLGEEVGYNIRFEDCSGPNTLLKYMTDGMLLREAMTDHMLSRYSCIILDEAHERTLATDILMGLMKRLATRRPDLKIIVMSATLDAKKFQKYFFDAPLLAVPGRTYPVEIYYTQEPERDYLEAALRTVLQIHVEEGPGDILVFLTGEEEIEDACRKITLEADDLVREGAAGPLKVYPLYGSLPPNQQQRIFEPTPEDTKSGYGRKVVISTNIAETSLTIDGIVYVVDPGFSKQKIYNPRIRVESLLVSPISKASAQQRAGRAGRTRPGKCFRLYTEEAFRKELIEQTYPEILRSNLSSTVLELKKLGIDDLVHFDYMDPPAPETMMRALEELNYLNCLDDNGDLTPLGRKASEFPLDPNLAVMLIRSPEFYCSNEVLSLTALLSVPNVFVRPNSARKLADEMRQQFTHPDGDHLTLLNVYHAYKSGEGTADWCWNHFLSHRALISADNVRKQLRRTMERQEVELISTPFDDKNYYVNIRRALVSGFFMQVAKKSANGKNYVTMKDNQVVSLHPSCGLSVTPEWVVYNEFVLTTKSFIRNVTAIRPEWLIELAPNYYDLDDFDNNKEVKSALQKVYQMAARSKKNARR
# UniProt Q9UUG0: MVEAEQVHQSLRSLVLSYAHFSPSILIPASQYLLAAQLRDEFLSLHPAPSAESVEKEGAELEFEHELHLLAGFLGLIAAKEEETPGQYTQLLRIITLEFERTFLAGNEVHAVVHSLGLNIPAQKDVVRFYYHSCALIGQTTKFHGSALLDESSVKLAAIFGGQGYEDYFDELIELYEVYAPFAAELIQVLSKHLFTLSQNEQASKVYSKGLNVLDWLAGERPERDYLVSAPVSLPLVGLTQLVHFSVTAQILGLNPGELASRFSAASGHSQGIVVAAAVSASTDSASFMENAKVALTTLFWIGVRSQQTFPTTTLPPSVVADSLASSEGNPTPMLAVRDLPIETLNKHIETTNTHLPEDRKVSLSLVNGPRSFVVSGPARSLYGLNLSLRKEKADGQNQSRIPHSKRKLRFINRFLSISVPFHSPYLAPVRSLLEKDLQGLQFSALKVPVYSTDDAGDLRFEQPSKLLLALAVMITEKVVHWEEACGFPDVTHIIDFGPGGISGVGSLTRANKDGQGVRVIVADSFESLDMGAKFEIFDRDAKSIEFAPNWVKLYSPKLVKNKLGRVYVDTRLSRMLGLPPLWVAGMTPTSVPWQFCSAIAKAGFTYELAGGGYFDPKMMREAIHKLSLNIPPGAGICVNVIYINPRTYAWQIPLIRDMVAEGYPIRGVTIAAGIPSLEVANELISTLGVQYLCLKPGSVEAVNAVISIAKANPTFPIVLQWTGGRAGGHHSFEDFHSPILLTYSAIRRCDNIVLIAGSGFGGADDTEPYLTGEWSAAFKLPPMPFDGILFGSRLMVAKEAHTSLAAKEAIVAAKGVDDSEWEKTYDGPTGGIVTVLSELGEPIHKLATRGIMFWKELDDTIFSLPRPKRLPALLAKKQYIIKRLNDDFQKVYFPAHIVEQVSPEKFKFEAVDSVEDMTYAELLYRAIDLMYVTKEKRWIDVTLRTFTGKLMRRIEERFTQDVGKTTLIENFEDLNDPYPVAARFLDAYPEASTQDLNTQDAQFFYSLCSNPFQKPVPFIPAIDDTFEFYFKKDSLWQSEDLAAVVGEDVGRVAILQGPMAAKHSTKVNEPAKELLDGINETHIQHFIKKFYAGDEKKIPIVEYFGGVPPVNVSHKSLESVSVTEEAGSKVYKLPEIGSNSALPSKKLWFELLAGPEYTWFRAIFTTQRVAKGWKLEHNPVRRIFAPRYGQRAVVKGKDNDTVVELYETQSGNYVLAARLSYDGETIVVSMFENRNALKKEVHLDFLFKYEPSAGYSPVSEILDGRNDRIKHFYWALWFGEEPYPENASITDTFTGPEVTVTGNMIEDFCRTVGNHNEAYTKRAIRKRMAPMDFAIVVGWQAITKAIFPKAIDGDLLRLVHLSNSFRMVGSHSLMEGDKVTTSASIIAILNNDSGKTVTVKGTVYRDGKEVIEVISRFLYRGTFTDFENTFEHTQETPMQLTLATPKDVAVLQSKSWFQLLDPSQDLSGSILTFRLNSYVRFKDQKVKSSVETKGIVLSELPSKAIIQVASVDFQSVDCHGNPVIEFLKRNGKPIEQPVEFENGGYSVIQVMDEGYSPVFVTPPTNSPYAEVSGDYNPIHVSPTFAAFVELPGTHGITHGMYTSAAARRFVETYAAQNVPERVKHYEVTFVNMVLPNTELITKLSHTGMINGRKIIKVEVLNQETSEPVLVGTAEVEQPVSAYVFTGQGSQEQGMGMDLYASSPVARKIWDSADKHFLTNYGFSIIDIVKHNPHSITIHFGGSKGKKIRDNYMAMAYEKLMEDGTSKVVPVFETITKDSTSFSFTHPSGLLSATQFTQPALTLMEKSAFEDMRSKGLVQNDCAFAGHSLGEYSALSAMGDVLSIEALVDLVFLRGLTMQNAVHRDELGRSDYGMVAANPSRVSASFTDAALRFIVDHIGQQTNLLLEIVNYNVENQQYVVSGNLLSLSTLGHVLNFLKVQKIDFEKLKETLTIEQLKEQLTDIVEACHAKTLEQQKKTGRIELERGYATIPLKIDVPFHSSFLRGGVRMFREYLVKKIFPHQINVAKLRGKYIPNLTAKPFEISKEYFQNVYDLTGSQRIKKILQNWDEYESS
# UniProt P0CT75: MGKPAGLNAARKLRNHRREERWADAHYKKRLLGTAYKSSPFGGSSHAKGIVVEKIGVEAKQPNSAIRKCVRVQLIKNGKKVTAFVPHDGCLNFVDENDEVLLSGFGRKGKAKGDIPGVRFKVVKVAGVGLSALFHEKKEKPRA
# UniProt O74752: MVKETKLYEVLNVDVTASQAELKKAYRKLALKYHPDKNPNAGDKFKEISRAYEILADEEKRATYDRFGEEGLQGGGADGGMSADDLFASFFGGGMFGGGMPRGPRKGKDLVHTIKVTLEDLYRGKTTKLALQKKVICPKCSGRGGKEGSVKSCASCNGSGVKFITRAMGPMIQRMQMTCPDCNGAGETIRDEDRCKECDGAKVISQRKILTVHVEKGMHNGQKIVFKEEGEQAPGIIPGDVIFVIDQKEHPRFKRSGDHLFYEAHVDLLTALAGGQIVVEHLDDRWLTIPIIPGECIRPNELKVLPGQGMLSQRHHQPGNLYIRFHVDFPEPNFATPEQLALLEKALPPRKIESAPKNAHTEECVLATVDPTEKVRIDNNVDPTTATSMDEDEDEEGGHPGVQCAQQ
# UniProt P42656: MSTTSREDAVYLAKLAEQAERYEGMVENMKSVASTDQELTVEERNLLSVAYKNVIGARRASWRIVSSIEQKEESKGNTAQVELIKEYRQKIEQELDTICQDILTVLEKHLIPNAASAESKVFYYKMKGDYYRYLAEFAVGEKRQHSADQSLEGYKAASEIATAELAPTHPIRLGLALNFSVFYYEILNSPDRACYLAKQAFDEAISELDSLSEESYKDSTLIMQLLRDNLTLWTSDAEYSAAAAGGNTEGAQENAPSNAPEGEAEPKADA
# UniProt P36612: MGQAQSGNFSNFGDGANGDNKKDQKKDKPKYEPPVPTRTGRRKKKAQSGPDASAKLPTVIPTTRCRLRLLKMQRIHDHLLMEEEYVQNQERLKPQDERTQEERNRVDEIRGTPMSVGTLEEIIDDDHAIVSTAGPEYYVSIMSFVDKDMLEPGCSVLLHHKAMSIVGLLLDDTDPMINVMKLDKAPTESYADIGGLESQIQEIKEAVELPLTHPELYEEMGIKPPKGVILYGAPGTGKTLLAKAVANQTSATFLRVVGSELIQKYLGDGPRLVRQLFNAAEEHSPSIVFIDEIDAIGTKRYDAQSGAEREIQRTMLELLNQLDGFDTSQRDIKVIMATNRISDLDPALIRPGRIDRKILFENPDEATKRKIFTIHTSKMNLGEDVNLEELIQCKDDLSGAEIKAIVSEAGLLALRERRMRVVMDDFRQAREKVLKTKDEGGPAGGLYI
# UniProt P42657: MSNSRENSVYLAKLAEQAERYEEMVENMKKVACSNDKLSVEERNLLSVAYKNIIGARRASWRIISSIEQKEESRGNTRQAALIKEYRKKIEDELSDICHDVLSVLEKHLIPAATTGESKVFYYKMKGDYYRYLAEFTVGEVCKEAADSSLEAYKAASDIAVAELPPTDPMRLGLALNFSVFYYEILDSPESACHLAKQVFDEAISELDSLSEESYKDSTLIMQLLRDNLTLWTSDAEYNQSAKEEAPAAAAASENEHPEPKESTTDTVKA
# UniProt O94657: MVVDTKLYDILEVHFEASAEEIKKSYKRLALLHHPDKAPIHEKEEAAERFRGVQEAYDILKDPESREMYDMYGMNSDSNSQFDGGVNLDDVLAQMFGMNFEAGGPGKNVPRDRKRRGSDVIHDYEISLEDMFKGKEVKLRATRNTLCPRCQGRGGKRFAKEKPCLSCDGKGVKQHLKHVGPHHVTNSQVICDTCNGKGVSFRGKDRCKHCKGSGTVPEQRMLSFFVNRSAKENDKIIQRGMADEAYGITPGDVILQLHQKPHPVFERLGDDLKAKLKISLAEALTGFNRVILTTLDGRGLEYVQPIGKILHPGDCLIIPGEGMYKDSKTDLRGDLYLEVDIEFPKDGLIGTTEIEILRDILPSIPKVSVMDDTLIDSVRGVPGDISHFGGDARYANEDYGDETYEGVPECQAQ
# UniProt P40235: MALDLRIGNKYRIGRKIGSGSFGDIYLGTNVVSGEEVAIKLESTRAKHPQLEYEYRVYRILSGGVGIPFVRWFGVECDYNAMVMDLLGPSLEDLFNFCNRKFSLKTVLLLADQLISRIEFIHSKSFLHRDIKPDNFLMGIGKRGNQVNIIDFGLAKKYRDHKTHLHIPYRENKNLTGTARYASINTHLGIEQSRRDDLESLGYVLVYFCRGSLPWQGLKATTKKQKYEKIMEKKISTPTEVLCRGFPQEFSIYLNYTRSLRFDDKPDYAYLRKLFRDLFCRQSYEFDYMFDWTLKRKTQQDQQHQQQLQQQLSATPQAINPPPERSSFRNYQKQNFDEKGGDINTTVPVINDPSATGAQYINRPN
# Biological target: human glucocorticoid receptor alpha (GRα), expressed in S. pombe (human) (UniProt P04150)
# Test: affinity purification with mass spectrometry; anti-GR antibody on epoxy-activated magnetic beads; lysates of S. pombe expressing hGRα (empty vector as control) grown at 30 °C or 39 °C (heat shock 30 min); lysis buffer 250 mM NaCl, 20 mM Tris pH 7.5, 1% Triton X-100, 100 mM potassium acetate; 4 °C, 1 hour, 6 washes; SDS-PAGE and LC-MS/MS
row,Substance,binding
1,Mra1 (from UniProt Q10107 1-359),binds
2,prp43 (from UniProt O42945 1-735),binds
3,epe1 (from UniProt O94603 1-948),binds
4,fas1 (from UniProt Q9UUG0 1-2073),binds
5,rps23 (from UniProt P0CT75 1-143),binds
6,DNAJ domain protein Mas5 chaperone (from UniProt O74752 1-407),binds

# The next lines start with the values.
row,binding,Substance
1,binds,rad24 (from UniProt P42656 1-270)
2,binds,19 S proteasome regulatory subunit Rpt2 (from UniProt P36612 1-448)
3,binds,AAA family ATPase involved in ubiquitin-mediated protein degradation Cdc48 (from UniProt Q9P3A7 1-809)
4,binds,rad25 (from UniProt P42657 1-270)
5,binds,eIF4A (from UniProt P47943 1-392)
6,binds,DNAJ protein Xdj1 (from UniProt O94657)
7,binds,hhp1 (from UniProt P40235 1-365)
